# In patent US6800470B2, “Mammalian sphingosine kinase type 2 isoforms, cloning, expression and methods of use thereof” (Sankyo Company, Ltd., priority 2000, dated 2004):
# B1: mSPHK2: murine sphingosine kinase type 2, polypeptide of 617 amino acids (SEQ ID NO 12) (protein)
# chain: MAPPPLLPVAASTPILHGEFGSYPANGPRFALTLTTQALHIQRLRPKPEARPRDGLVSLDEVSGCGTLQSRSPEDTAAYFCIYTYPRGRRGGRRRATRTFRADGATTYEENRAEAQRWATALTCLLRGVPLSGDQEITPELLPRKPRLLILVNPFGGRGLAWQRCMDHVVPMISEAGLSFNLIQTERQNHARELVQGLSLSEWEGIVTVSGDGLLYEVLNGLLDRPDWEDAVRMPIGVLPCGSGNALAGAVSHHGGFEQVVGVDLLLNCSLLLCRGGSHPLDLLSVTLASGSRCFSFLSVAWGFLSDVDIHSERFRALGSARFTLGAVLGLASLHTYRGRLSYLPATTEPALPIPGHSLPRAKSELVLAPAPAPAATHSPLHRSVSDLPLPLPQPALVSPGSPEPLPDLSLNGGGPELTGDWGGAGDAPLSPDPLLPSSPNALKTAQLSPIAEGPPEMPASSGFLPPTHSAPEASTWGPVDHLLPPLGSPLPQDWVTIEGEFVLMLGILTSHLCADLMAAPHARFDDGVVHLCWVRSGISRAALLRIFLAMEHGNHFSLGCPHLGYAAARAFRLEPLTPRGLLTVDGELVEYGPIQAQVHPGLATLLTGPAGQKPQA
# B2: hSPHK2: human sphingosine kinase type 2, polypeptide of 618 amino acids (SEQ ID NO 14) (protein)
# chain: MAPPPPPLAASTPLLHGEFGSYPARGPRFALTLTSQALHIQRLRPKPEARPRGGLVPLAEVSGCCTLRSRSPSDSAAYFCIYTYPRGRRGARRRATRTFRADGAATYEENRAEAQRWATALTCLLRGLPLPGDGEITPDLLPRPPRLLLLVNPFGGRGLAWQWCKNHVLPMISEAGLSFNLIQTERQNHARELVQGLSLSEWDGIVTVSGDGLLHEVLNGLLDRPDWEEAVKMPVGILPCGSGNALAGAVNQHGGFEPALGLDLLLNCSLLLCRGGGHPLDLLSVTLASGSRCFSFLSVAWGFVSDVDIQSERFRALGSARFTLGTVLGLATLHTYRGRLSYLPATVEPASPTPAHSLPRAKSELTLTPDPAPPMAHSPLHRSVSDLPLPLPQPALASPGSPEPLPILSLNGGGPELAGDWGGAGDAPLSPDPLLSSPPGSPKAALHSPVSEGAPVIPPSSGLPLPTPDARVGASTCGPPDHLLPPLGTPLPPDWVTLEGDFVLMLAISPSHLGADLVAAPHARFDDGLVHLCWVRSGISRAALLRLFLAMERGSHFSLGCPQLGYAAARAFRLEPLTPRGVLTVDGEQVEYGPLQAQMHPGIGTLLTGPPGCPGREP
# System: HEK293 cells
# Test: SPHK activity in HEK293 cells transiently transfected with SPHK expression vectors (cytosol and particulate fractions)
# Type: cell-based, human
# Settings: transfected HEK293 cells, 100,000×g fractions
# Protocol: In FIG. 3A, HEK 293 cells were transiently transfected with an empty vector or with mSPHK2 or hSPHK2 expression vectors. After 24 hours, SPHK activity was measured in cytosol (open bars) and particulate fractions (filled bars). The data are means±S.D. Parental and vector-transfected cells had basal SPHK activities of 26 and 37 pmol/min/mg, respectively.
# Human embryonic kidney cells (HEK293, ATCC CRL-1573) and NIH 3T3 fibroblasts (ATCC CRL-1658) were cultured as described in Olivera, A., Kohama, T., Edsall, L. C., Nava, V., Cuvillier, O., Poulton, S., and Spiegel, S., J. Cell Biol., 147 (1999) 545-558. HEK293 cells were seeded at 6×10^5 per well in poly-L-lysine coated 6 well plates. After 24 hours, cells were transfected with 1 μg of vector alone or with vectors containing sphingosine kinase constructs and 6 μl of “Lipofectamine PLUS” reagent plus 4 μl of “Lipofectamine” reagent per well. One to three days after transfection, cells were harvested and lysed by freeze-thawing as described in Kohama, T., Olivera, A., Edsall, L., Nagiec, M. M., Dickson, R., and Spiegel, S., J. Biol. Chem., 273, (1998), 23722-23728. […] SPHK activity was determined in the presence of sphingosine, prepared as a complex with 4 mg/ml BSA, and [g-32P] […] 32P-SPP was separated by TLC and quantified with a phosphoimager as previously described.
molecule,measurement,value
B1,share of SPHK activity that is membrane-associated,17%
B2,share of SPHK activity that is membrane-associated,26%
